Experimental data reported in article PMC11910115.
Results are given in words; binding and its absence hold for the method and conditions named.

Protein sequences, listed by entry. Tags and fused reporters are not part of them. Residues count along the entry.
UniProt Q9UBK9, residues 2-157: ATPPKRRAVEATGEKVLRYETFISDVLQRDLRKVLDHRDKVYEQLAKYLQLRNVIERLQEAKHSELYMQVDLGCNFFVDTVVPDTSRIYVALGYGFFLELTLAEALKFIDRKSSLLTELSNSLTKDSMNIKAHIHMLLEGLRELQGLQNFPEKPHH

Target: 6×His-sfGFP-UXT (human) (UniProt Q9UBK9)
Experiment: condition: only with an elevated concentration of SDS; native gel or EMSA; purified recombinant UXT proteins on PAGE with a serial gradient of SDS concentrations for denaturation (elevated SDS / denaturing conditions); both purified

binding: no binding
Substance: 6×His-sfGFP-UXT (from UniProt Q9UBK9 2-157)
